Results: PubChem BioAssay AID445 (National Center for Advancing Translational Sciences (NCATS), 2006)
Some of the results follow. Shown are side measurements of this screen, not its main read-out; they come without a call. Compounds called inactive in the main read-out are mostly missing here. Potencies come from curve fits of mixed quality, noted in brackets.

Experiment: IkB Signaling
Conditions: ABC-DLBCL IkBa-CBG/CBR dual luciferase ratio (green luciferase fused to IkBa over red control in OCI-Ly3 lymphoma cells), 4 h; measured here: control luc red channel unless noted
Outline: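 Curves were fitted separately to fusion (green), unfused (red) and ratio luminescence, then classed by r2, magnitude and activity. Cells: OCI-Ly3, 4 h compound plus doxycycline at 37C; 10 uM MG-132 defined full response.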

| SMILES | AC50 |
| --- | --- |
| CCOc1ccc(C(=O)Nc2ccc3nc(SCc4ccccc4)sc3c2)cc1 | 20 µM [falling, partial curve] |
| COc1ccccc1N1CCN(C(=O)Cn2c(=O)nc(-c3ccccc3)c3cc(Cl)ccc32)CC1 | 2.51 µM [falling, full curve, poor fit] |
| Cc1nc2c(-c3ccc(F)cc3)c(C)nn2c(C)c1CCC(=O)NCc1ccc(Cl)cc1 | 0.251 µM [falling, full curve] |
| COc1ccccc1N1CCN(CC(O)COc2cc(C)cc(C)c2)CC1 (centres undefined) | 7.94 µM [falling, partial curve] |
| COc1cccc(CNC(=O)CCCN2C(=O)CSc3c2c(C)nn3-c2ccccc2)c1 | 7.94 µM [falling, partial curve] |
| O=c1c2ccccc2n(Cc2cccc(F)c2)c(=O)n1Cc1ccccc1Cl | 0.794 µM [falling, full curve] |
| CCn1cc(C(=O)N2CCN(c3cc(C)ccc3C)CC2)c(=O)c2cc(S(=O)(=O)N(C)C3CCCCC3)ccc21 | 12.6 µM [falling, partial curve] |
| Cc1c(CNC(C)CCc2ccccc2)c(C(=O)O)c(C)n1Cc1ccc(F)cc1Cl (centres undefined) | 15.8 µM [falling, partial curve] |
| O=C(c1ccccc1Cl)n1nc(-c2cccnc2)nc1NCc1ccc(F)cc1 | 12.6 µM [falling, partial curve] |
| CCCCOc1ccc(C(=O)N(Cc2ccc(C(C)C)cc2)C2CCS(=O)(=O)C2)cc1 (centres undefined) | 39.8 µM [falling, single point] |
| CCOC(=O)c1c(NC(=O)OC)sc(C(=O)N(CC)CC)c1C | 3.98 µM [rising, partial curve] |
| Cc1ccc2c(=O)cc(CSc3nnc(-c4ccccc4)n3C)[nH]c2c1C | 31.6 µM [falling, partial curve] |
| CCCNC(=O)c1cc(-c2ccco2)on1 | 39.8 µM [falling, single point] |
| CSc1nc2c(c(=O)n1C)SC(C)C2 (centres undefined) | 25.1 µM [rising, partial curve] |
| COCCCNC(=O)c1sc2nc(C)c(C(=O)Nc3ccc(C)cc3C)c(-c3ccc(Cl)cc3)c2c1N | 12.6 µM [falling, partial curve] |
| CC(=O)Nc1ccc(S(=O)(=O)N2CCC(Oc3ccc(-n4cnnn4)cc3)CC2)cc1 | 25.1 µM [falling, partial curve] |
| CCn1c(C(C#N)/C(=N\S(=O)(=O)c2cccs2)c2ccccc2)nc2ccccc21 (centres undefined) | 20 µM [rising, partial curve] [measured here: IkB-luc green channel] |
| COc1cc(OC)cc(-n2nnc(-c3nc(-c4ccccc4Cl)no3)c2N)c1 | 5.01 µM [rising, full curve, poor fit] |
| CC1CCN(C(=O)c2cnn(-c3cccc(Cl)c3)c2C2CCN(C(=O)OC(C)(C)C)CC2)CC1 | 25.1 µM [falling, single point] |
| COc1ccc(OCC(=O)NCC(c2ccc(Cl)cc2)N2CCCCC2)cc1 (centres undefined) | 25.1 µM [falling, partial curve] |

11 entries out of the list, sorted by molecular weight, smallest number first:

| SMILES | AC50 |
| --- | --- |
| CCCNC(=O)c1cc(-c2ccco2)on1 | 39.8 µM [falling, single point] |
| CSc1nc2c(c(=O)n1C)SC(C)C2 (centres undefined) | 25.1 µM [rising, partial curve] |
| CCOC(=O)c1c(NC(=O)OC)sc(C(=O)N(CC)CC)c1C | 3.98 µM [rising, partial curve] |
| COc1cc(OC)cc(-n2nnc(-c3nc(-c4ccccc4Cl)no3)c2N)c1 | 5.01 µM [rising, full curve, poor fit] |
| COc1ccc(OCC(=O)NCC(c2ccc(Cl)cc2)N2CCCCC2)cc1 (centres undefined) | 25.1 µM [falling, partial curve] |
| O=C(c1ccccc1Cl)n1nc(-c2cccnc2)nc1NCc1ccc(F)cc1 | 12.6 µM [falling, partial curve] |
| CCOc1ccc(C(=O)Nc2ccc3nc(SCc4ccccc4)sc3c2)cc1 | 20 µM [falling, partial curve] |
| CCn1c(C(C#N)/C(=N\S(=O)(=O)c2cccs2)c2ccccc2)nc2ccccc21 (centres undefined) | 20 µM [rising, partial curve] [measured here: IkB-luc green channel] |
| CC1CCN(C(=O)c2cnn(-c3cccc(Cl)c3)c2C2CCN(C(=O)OC(C)(C)C)CC2)CC1 | 25.1 µM [falling, single point] |
| COc1ccccc1N1CCN(C(=O)Cn2c(=O)nc(-c3ccccc3)c3cc(Cl)ccc32)CC1 | 2.51 µM [falling, full curve, poor fit] |
| COCCCNC(=O)c1sc2nc(C)c(C(=O)Nc3ccc(C)cc3C)c(-c3ccc(Cl)cc3)c2c1N | 12.6 µM [falling, partial curve] |

Carrying on.

| SMILES | AC50 |
| --- | --- |
| COc1ccc(NC(=O)c2c(-c3ccccc3)c(-c3ccccc3)nn(C)c2=O)c(OC)c1 | 10 µM [falling, partial curve] |
| COc1ccccc1NC(=O)CSc1oc(-c2cccs2)nc1S(=O)(=O)c1ccc(Br)cc1 | 7.94 µM [falling, partial curve] |
| COc1ccc(-c2nc(SCC(=O)Nc3ccc4c(c3)OCO4)c(-c3ccc(OC)cc3)[nH]2)cc1 | 6.31 µM [falling, partial curve] |
| Cc1cc(C)cc(OC(=O)c2snnc2C)c1 | 0.158 µM [rising, full curve, poor fit] |
| COC(=O)C1=C(CSc2nc3ccccc3o2)NC(=O)NC1c1cc(C)ccc1C (centres undefined) | 2.51 µM [falling, full curve] |
| Cc1cnc(C(=O)OCC(=O)Nc2oc(-c3ccccc3)c(-c3ccccc3)c2C#N)cn1 | 10 µM [falling, partial curve] |
| CCC(Sc1nnc(-c2ccc(C)c(Cl)c2)n1CC)C(=O)Nc1nccs1 (centres undefined) | 15.8 µM [falling, partial curve] |
| O=C(Cc1ccccc1)Nc1sc2c(c1C(=O)Nc1ccc(Cl)cc1)CCCC2 | 39.8 µM [rising, single point] [measured here: IkB-luc green channel] |
| COC(=O)c1cccc(NC(=O)CSc2nc3cccnc3n2C)c1 | 7.94 µM [falling, partial curve] |
| Cc1cccc(NC(=O)CSc2nc3c([nH]c4ccccc43)c(=O)n2C)c1C | 0.251 µM [falling, full curve, poor fit] |
| N#C/C(=C\c1ccc(Cl)cc1)c1nc2ccccc2[nH]1 | 7.94 µM [falling, full curve, poor fit] |
| Cc1ccc(S(=O)(=O)CC(=O)Nc2sc3c(c2C#N)CCCCC3)cc1 | 12.6 µM [rising, partial curve] |
| CC(C)CCN(Cc1ccco1)C(=O)c1cc2c(Cl)nc3ccccc3c2s1 | 39.8 µM [falling, single point] |
| O=C(O)C1C2C=CC(C2)C1C(=O)Nc1ccc2c(c1)OCCO2 (centres undefined) | 7.94 µM [falling, partial curve] |
| CCCOc1ccc(-c2nn(-c3ccccc3)cc2C2NC(=O)NC(C)=C2C(=O)OC)cc1C (centres undefined) | 39.8 µM [falling, single point] |
| CCOc1ccccc1NC(=O)Nc1nnc(N2CCCCCC2)s1 | 25.1 µM [falling, partial curve] |
| COC(=O)c1ccc(C2c3c(oc4cc(C)c(C)cc4c3=O)C(=O)N2CCCN(C)C)cc1 (centres undefined) | 3.98 µM [falling, full curve, poor fit] |
| COc1cc(C(=O)Nc2ccc3oc(-c4ccccc4)nc3c2)cc(OC)c1OC | 6.31 µM [falling, partial curve] |
| COc1cc(Cl)c(C)cc1NC(=O)CSc1ncc(S(=O)(=O)c2ccc(C(C)(C)C)cc2)c(=O)[nH]1 | 0.316 µM [falling, full curve] |
